From the supplement of paper PMC6411743 come the findings set out here.

Sequences of proteins named here, by UniProt entry; tags and fusion partners are left off. A change or cut given only in a name is not applied to a line headed by its entry.
UniProt O95167, whole entry: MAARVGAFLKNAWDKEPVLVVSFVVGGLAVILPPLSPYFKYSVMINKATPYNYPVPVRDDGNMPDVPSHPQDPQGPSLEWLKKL
UniProt O95347, whole entry: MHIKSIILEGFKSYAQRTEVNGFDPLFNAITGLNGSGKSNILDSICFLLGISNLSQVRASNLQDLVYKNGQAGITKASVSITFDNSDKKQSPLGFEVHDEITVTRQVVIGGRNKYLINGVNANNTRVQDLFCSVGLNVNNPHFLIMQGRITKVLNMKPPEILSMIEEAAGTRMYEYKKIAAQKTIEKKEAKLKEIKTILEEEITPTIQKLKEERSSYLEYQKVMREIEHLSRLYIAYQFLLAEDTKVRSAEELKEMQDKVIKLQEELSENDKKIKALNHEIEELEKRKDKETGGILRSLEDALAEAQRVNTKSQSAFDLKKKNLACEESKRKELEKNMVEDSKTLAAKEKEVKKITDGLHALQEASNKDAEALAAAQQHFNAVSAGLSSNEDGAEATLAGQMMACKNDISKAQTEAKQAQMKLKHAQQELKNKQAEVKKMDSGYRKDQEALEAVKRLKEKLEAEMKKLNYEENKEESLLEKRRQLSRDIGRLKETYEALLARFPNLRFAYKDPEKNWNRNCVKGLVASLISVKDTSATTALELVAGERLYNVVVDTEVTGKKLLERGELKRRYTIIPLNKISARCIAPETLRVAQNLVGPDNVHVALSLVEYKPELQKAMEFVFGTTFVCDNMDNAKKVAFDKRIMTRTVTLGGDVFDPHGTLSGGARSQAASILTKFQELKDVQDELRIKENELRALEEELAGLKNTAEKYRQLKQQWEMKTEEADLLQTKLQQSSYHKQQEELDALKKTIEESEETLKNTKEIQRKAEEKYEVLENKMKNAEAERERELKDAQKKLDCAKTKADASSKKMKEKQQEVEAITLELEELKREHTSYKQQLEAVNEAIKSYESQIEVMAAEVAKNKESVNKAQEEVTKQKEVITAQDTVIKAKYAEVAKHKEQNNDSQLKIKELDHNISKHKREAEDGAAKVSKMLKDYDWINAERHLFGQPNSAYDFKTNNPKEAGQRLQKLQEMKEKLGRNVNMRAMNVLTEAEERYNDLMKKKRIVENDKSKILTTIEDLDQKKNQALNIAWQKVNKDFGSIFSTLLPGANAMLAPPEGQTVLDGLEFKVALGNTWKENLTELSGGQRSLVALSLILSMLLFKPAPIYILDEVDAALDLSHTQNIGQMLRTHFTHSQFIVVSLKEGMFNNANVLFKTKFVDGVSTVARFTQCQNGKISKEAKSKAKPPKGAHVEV
UniProt O75382: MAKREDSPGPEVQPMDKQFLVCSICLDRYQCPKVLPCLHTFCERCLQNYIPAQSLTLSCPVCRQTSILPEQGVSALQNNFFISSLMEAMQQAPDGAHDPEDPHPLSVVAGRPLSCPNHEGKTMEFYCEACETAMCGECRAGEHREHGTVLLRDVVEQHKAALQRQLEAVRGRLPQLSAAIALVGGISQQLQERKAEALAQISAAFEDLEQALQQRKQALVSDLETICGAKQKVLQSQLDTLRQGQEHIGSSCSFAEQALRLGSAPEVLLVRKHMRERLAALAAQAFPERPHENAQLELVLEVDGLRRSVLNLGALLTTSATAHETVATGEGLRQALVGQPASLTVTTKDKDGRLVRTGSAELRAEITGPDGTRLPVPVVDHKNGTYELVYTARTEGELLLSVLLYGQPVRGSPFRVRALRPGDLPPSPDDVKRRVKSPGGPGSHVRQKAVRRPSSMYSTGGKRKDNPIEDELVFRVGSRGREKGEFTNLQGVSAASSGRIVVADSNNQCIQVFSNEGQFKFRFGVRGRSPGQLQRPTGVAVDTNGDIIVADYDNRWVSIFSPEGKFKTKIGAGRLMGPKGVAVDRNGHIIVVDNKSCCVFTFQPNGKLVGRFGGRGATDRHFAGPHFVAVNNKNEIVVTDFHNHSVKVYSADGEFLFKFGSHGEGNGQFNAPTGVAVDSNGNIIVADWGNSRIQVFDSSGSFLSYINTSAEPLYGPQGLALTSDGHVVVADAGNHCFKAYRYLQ
UniProt O75787, whole entry: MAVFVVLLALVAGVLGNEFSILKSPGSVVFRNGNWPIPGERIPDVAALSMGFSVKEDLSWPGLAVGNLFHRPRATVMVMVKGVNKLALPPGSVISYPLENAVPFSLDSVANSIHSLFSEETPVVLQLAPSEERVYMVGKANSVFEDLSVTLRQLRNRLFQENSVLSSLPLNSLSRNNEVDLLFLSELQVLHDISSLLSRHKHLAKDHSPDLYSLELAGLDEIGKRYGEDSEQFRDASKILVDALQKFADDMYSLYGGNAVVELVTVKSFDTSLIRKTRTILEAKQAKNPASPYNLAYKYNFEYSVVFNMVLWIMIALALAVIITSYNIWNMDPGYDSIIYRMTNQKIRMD
UniProt O75995: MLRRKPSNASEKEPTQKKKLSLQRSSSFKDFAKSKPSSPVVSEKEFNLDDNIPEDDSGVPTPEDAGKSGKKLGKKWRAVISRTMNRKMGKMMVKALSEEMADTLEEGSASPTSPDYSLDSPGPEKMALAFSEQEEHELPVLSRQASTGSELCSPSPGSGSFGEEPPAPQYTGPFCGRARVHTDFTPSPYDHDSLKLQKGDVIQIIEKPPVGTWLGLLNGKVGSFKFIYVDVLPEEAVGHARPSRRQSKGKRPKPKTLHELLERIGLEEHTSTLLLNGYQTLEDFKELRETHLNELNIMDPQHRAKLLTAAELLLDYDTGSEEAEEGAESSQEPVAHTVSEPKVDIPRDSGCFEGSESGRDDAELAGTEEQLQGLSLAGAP
UniProt O75582, whole entry, looked up: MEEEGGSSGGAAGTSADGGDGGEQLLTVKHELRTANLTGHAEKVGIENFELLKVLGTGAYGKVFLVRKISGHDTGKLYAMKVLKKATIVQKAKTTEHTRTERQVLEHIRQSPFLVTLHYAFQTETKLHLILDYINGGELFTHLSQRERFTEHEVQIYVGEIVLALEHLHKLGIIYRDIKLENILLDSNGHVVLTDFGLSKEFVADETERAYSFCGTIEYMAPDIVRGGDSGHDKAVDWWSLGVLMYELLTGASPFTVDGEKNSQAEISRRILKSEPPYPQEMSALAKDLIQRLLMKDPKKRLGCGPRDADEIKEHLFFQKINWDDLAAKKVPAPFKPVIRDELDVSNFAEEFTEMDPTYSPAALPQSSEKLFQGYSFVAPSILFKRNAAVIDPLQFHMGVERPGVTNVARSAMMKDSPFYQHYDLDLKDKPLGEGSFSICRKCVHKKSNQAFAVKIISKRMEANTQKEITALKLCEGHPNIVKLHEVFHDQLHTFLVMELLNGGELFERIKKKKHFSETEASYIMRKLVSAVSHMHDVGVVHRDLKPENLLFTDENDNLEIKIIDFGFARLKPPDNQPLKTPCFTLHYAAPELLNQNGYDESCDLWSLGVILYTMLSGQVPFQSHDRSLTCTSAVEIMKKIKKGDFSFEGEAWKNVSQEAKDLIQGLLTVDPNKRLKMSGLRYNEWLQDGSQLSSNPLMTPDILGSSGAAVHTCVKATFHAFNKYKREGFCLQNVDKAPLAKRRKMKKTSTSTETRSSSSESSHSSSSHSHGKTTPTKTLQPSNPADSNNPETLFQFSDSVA
UniProt O75600: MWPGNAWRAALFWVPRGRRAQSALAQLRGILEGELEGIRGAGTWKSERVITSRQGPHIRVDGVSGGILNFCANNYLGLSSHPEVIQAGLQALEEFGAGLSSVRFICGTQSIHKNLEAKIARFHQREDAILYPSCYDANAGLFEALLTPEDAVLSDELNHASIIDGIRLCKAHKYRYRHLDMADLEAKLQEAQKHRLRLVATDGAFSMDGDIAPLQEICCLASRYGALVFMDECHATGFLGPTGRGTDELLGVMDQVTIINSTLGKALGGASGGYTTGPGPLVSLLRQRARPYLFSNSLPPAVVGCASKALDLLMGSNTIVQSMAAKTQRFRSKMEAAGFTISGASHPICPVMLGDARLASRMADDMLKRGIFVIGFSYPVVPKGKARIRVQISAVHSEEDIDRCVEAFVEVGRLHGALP
UniProt O60671: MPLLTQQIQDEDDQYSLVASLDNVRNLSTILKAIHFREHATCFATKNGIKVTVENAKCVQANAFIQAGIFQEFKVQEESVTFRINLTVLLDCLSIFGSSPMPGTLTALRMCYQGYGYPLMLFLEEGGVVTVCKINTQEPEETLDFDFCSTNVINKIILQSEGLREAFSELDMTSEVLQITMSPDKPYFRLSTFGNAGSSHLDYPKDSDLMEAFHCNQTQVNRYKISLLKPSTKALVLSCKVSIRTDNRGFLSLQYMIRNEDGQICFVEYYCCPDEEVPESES
UniProt O76062: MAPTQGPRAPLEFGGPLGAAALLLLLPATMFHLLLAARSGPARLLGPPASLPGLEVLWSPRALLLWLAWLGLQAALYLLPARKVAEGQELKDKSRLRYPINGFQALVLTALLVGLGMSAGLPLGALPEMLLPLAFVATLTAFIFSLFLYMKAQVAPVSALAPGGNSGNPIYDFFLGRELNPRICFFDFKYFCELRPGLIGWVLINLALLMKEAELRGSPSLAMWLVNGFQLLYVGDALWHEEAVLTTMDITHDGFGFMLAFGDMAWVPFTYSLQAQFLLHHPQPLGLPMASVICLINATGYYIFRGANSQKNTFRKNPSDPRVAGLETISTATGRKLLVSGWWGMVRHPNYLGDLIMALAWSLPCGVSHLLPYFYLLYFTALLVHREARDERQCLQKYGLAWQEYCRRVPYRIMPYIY
UniProt O75431: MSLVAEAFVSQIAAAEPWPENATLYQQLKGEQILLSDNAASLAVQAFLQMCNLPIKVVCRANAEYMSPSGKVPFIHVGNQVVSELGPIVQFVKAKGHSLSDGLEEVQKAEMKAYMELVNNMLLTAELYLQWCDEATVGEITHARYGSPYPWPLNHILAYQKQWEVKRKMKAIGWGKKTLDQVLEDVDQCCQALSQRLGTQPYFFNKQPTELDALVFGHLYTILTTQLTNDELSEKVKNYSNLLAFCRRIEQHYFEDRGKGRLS
UniProt O75746: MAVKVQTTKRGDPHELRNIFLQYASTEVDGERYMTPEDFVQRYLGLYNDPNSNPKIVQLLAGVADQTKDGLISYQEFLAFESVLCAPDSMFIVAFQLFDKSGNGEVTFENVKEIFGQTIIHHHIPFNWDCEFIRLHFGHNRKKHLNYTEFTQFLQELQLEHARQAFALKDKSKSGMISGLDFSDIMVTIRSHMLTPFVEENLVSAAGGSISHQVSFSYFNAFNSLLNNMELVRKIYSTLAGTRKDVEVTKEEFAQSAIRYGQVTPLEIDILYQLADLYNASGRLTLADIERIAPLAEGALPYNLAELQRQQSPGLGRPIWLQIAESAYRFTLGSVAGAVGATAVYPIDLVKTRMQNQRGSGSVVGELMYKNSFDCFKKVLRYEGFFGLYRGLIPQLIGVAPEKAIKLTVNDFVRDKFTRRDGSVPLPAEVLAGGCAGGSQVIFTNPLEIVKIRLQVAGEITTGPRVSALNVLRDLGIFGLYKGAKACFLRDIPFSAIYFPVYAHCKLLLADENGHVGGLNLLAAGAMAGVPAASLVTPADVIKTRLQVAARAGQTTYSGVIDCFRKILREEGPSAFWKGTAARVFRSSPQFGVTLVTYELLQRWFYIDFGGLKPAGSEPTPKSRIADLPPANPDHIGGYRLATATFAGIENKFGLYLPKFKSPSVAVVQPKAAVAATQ
UniProt O60831: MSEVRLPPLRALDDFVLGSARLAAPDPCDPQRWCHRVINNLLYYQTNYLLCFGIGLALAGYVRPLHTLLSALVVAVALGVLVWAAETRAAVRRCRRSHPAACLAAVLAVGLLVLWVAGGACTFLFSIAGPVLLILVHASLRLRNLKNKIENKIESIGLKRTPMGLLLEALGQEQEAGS
UniProt O75925, whole entry: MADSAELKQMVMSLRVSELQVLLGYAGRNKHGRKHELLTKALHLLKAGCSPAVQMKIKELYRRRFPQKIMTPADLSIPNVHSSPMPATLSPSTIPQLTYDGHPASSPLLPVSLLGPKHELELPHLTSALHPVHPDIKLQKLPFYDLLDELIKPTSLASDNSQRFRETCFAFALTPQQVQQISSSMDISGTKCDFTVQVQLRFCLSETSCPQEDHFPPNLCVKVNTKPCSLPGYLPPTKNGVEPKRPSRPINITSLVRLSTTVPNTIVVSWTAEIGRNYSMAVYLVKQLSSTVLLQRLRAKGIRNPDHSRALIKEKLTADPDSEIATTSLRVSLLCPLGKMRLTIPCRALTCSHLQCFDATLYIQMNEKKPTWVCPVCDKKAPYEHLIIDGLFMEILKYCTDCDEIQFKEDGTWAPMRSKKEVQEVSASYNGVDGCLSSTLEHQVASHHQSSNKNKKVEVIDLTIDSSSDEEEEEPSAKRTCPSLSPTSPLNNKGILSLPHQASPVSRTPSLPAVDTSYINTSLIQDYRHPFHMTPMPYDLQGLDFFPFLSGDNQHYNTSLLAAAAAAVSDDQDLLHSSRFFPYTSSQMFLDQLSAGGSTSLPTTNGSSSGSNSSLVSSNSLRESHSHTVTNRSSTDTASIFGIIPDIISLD

± gives the standard deviation of the averaged measurements. This is a selection; strong and weak results do not stand in their true shares. Most values lie at the level of the controls, where differences are scatter.

Compound in one assay: Nc1ncnc2c1ncn2[C@@H]1O[C@H](COP(=O)(O)OP(=O)(O)OP(=O)(O)O)[C@@H](O)[C@H]1O [adenosine triphosphate]
Put plainly: NP40-soluble protein abundance relative to vehicle (solubility fold change) (ratio); higher = more soluble protein in presence of ATP. The following applies: concentration: 0.1mM. Summed up:
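Data come from three independent experiments in which Dounce-homogenised Jurkat crude lysate was treated at eight concentrations from 0.1 to 10 mM. Treatment ran 10 min at room temperature and then 3 min at 37 °C, after which 0.8% NP40 and benzonase were added for 60 min at 4 °C before ultracentrifugation. The supernatant underwent TMT labelling and LC-MS/MS, and vsn-normalised intensities were expressed as fold change against the detergent-processed vehicle in each replicate.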
As for UniProt O95167 and related entries, the NP40-soluble protein abundance stood at 0.747 ± 0.17.
Same read-out and setting: the result for UniProt O75208 and related entries reads 0.872 ± 0.065.
Still for that read-out and setting: the figure for SMC2 (UniProt O95347) is 1 ± 0.03; for UniProt O75382 and related entries it is 1.06 ± 0.12; for UniProt O75787 and related entries it is 0.992 ± 0.055.
Same read-out and setting: the result for UniProt O60504 and related entries reads 1.02 ± 0.013; that for SASH3 (UniProt O75995), 0.993 ± 0.043; that for ATG7 (UniProt O95352), 1.03 ± 0.017.
Consider UniProt O75582 and related entries, for which the NP40-soluble protein abundance was found to be 1.08 ± 0.054.
Regarding UniProt O95568 and related entries, the NP40-soluble protein abundance came to 0.998 ± 0.1.
The same measure, in the same setting: the figure for UniProt O75145 and related entries is 1 ± 0.039; for UniProt O75600 and related entries it is 0.977 ± 0.031; for RANBP6 (UniProt O60518) it is 1.01 ± 0.13.
On the same count and under the same terms, the result for UniProt O75054 and related entries reads 0.972 ± 0.073; that for UniProt O60664, 0.917 ± 0.033; that for UniProt O60502 and related entries, 1.02 ± 0.034.
On the same count and under the same terms, the figure for AP1G2 (UniProt O75843) is 1.07 ± 0.058.
Consider VAPB (UniProt O95292), for which the NP40-soluble protein abundance came to 0.991 ± 0.022.
Still for that read-out and setting: the result for UniProt O60671 and related entries reads 1.05 ± 0.14; that for UniProt O94874, 0.977 ± 0.02.
On the same count and under the same terms, the figure for RNASEH2A (UniProt O75792) is 1.01 ± 0.039; for PRKD3 (UniProt O94806) it is 1 ± 0.045; for MFN2 (UniProt O95140) it is 1.08 ± 0.034.
Take UniProt O76062 and related entries: the NP40-soluble protein abundance stood at 1.07 ± 0.095.
Same read-out and setting: the figure for UniProt O60524 and related entries is 0.981 ± 0.024; for UniProt O75431 and related entries it is 0.989 ± 0.039; for UniProt O95243 and related entries it is 1.04 ± 0.063.
Turning to NBN (UniProt O60934), the NP40-soluble protein abundance came out at 1.04 ± 0.023.
For UniProt O75554 and related entries, the NP40-soluble protein abundance worked out at 0.998 ± 0.021.
On the same count and under the same terms, the figure for “UniProt O75170-3|O75170-4|O75170-5|O75170” is 1 ± 0.019; for SEC24A (UniProt O95486) it is 1.06 ± 0.078; for ERLIN1 (UniProt O75477) it is 0.978 ± 0.03.
Still for that read-out and setting: the result for SLC25A12 (UniProt O75746) reads 1 ± 0.021.
Same read-out and setting: the figure for UniProt O75190 and related entries is 1.09 ± 0.066; for UniProt O75396 it is 0.974 ± 0.028; for UniProt O60831 and related entries it is 0.972 ± 0.049.
Consider UniProt O75925 and related entries, for which the NP40-soluble protein abundance turned out to be 0.961 ± 0.045.

Staying with this assay, now noted: concentration: 0.5mM.
Take UniProt O95167 and related entries: the NP40-soluble protein abundance was found to be 0.792 ± 0.24.
Still for that read-out and setting: the result for UniProt O75208 and related entries reads 0.825 ± 0.096; that for SMC2 (UniProt O95347), 1.03 ± 0.067; that for UniProt O75382 and related entries, 1.11 ± 0.083.
Turning to UniProt O75787 and related entries, the NP40-soluble protein abundance worked out at 0.979 ± 0.055.
On to UniProt O60504 and related entries, for which the NP40-soluble protein abundance came to 1.01 ± 0.024.
Take SASH3 (UniProt O75995): the NP40-soluble protein abundance worked out at 0.808 ± 0.11.
Still for that read-out and setting: the result for ATG7 (UniProt O95352) reads 0.977 ± 0.019; that for UniProt O75582 and related entries, 1.09 ± 0.054.
Still for that read-out and setting: the result for UniProt O95568 and related entries reads 1.11 ± 0.079; that for UniProt O75145 and related entries, 0.996 ± 0.052.
Turning to UniProt O75600 and related entries, the NP40-soluble protein abundance was found to be 1.03 ± 0.043.
Still for that read-out and setting: the figure for RANBP6 (UniProt O60518) is 0.972 ± 0.087; for UniProt O75054 and related entries it is 0.905 ± 0.13.
Same read-out and setting: the result for UniProt O60664 reads 0.904 ± 0.066; that for UniProt O60502 and related entries, 1.02 ± 0.041.
In the case of AP1G2 (UniProt O75843), the NP40-soluble protein abundance was determined as 1.01 ± 0.061.
Same read-out and setting: the result for VAPB (UniProt O95292) reads 1 ± 0.026; that for UniProt O60671 and related entries, 1.08 ± 0.11.
Consider UniProt O94874, for which the NP40-soluble protein abundance amounted to 0.997 ± 0.014.
Still for that read-out and setting: the figure for RNASEH2A (UniProt O75792) is 1.01 ± 0.037; for PRKD3 (UniProt O94806) it is 0.998 ± 0.15.
On to MFN2 (UniProt O95140), for which the NP40-soluble protein abundance came out at 1.04 ± 0.021.
The same measure, in the same setting: the result for UniProt O76062 and related entries reads 0.981 ± 0.079; that for UniProt O60524 and related entries, 0.926 ± 0.044.
Same read-out and setting: the result for UniProt O75431 and related entries reads 0.9804 ± 0.0042; that for UniProt O95243 and related entries, 1.03 ± 0.036.
Same read-out and setting: the figure for NBN (UniProt O60934) is 1.05 ± 0.046.
With UniProt O75554 and related entries, the NP40-soluble protein abundance was 1.16 ± 0.089.
Take “UniProt O75170-3|O75170-4|O75170-5|O75170”: the NP40-soluble protein abundance was determined as 0.974 ± 0.018.
Turning to SEC24A (UniProt O95486), the NP40-soluble protein abundance stood at 1.03 ± 0.1.
Same read-out and setting: the figure for ERLIN1 (UniProt O75477) is 1.04 ± 0.081; for SLC25A12 (UniProt O75746) it is 0.997 ± 0.026; for UniProt O75190 and related entries it is 1.12 ± 0.065.
Same read-out and setting: the result for UniProt O75396 reads 0.958 ± 0.051; that for UniProt O60831 and related entries, 0.932 ± 0.052; that for UniProt O75925 and related entries, 0.925 ± 0.043.
